Assay results reported in the M2OR odorant receptor database.
This is a selection; strong and weak results do not stand in their true shares. Calls are pooled over several reports, among them a noisy single-well screen. The list shows a part of the results.

Tests used:
Details in all cases: stereoisomer not certain
[1] = system: T1, OR4X1
T1 sequence (whole entry): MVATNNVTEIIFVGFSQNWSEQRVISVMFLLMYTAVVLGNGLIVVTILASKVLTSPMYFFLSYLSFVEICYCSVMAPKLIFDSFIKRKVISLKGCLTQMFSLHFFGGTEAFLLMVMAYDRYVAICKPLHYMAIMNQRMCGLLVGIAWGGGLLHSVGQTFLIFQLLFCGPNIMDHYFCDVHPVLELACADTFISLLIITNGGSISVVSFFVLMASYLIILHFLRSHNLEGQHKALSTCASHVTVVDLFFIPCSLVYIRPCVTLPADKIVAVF
Summary of the method: (§1)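 Each receptor–molecule pair is labelled responsive or non-responsive (inactive) according to whether the original authors judged the measured signal statistically different from baseline. The data were taken from the main text and supplementary material of published papers and checked for typos and inconsistencies. Assay methods differed by source, with transient luciferase assays in mammalian cell lines being common.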

[2] = molecular target: T2, OR4X2 (Homo sapiens) (UniProt Q8NGF9)
T2 sequence (whole entry): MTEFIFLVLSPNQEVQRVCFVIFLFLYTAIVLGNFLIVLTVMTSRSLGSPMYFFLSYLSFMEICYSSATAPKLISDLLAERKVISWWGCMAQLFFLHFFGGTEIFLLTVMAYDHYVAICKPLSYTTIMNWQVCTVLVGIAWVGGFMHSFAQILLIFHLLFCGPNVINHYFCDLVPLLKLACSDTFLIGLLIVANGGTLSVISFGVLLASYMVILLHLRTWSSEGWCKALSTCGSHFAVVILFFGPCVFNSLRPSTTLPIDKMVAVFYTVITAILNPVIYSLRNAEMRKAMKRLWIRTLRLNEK
Summary of the method: as §1

[3] = molecular target: T3, OR51A2 (Homo sapiens) (UniProt Q8NGJ7)
T3 sequence (whole entry): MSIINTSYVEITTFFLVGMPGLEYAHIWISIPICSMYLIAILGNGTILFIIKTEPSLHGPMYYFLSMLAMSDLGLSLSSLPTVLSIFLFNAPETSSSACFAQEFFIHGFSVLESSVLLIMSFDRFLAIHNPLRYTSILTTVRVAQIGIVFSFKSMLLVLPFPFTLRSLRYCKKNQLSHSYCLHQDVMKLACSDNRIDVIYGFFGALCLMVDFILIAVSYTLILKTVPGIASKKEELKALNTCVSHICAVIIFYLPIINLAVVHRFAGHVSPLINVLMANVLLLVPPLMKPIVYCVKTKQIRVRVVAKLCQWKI
Summary of the method: as §1

[4] = molecular target: T4, OR51B2 (Homo sapiens) (UniProt Q9Y5P1)
T4 sequence (whole entry): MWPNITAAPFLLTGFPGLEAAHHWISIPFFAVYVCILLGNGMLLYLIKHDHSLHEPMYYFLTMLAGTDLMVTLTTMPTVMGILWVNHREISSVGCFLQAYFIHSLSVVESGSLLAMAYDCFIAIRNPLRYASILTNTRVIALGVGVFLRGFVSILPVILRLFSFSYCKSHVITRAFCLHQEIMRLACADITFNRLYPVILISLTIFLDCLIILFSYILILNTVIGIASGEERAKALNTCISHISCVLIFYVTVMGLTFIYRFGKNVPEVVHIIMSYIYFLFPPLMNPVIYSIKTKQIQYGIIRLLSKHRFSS
Summary of the method: as §1

[5] = molecular target: T5, OR51D1 (Homo sapiens) (UniProt Q8NGF3)
T5 sequence (whole entry): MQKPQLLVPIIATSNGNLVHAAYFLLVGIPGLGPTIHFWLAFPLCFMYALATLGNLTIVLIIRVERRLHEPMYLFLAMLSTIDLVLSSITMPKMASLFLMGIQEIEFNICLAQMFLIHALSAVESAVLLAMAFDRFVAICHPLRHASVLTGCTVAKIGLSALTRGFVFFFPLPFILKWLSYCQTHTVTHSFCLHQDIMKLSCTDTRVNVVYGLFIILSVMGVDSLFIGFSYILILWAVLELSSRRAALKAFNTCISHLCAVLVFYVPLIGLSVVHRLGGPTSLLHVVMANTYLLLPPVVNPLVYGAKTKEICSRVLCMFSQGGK
Summary of the method: as §1

[6] = molecular target: T6, OR51E1 (Homo sapiens) (UniProt Q8TCB6)
T6 sequence (whole entry): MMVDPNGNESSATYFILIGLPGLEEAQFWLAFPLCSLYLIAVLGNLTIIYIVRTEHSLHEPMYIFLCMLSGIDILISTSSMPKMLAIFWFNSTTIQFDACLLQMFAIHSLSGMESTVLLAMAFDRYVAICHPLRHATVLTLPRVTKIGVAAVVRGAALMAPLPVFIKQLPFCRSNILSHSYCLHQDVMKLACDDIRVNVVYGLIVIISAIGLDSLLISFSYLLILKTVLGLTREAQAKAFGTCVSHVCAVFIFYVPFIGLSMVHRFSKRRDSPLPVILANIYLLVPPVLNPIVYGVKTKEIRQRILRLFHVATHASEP
Summary of the method: as §1

[7] = molecular target: T7, OR51E2 (Homo sapiens) (UniProt Q9H255)
T7 sequence (whole entry): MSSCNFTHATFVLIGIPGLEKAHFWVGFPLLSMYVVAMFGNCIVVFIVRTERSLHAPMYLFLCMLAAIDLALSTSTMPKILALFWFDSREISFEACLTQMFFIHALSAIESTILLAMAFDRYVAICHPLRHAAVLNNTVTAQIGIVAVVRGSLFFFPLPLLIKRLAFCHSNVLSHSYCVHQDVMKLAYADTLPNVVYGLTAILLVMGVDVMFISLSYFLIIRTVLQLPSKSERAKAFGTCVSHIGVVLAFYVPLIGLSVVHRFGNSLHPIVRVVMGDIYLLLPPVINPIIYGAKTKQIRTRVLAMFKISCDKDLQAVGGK
Summary of the method: as §1

[8] = molecular target: T8, OR51G1 (Homo sapiens) (UniProt Q8NGK1)
T8 sequence (whole entry): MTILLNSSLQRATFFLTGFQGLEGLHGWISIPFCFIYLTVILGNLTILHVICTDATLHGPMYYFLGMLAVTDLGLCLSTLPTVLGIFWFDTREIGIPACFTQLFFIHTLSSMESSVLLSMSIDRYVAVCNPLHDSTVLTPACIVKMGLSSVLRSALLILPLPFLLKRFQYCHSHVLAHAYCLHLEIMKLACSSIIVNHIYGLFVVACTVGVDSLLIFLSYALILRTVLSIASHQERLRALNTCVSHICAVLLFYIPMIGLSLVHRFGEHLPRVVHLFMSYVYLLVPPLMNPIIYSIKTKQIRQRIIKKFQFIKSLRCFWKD
Summary of the method: as §1

[9] = molecular target: T9, OR51H1 (Homo sapiens) (UniProt Q8NH63)
T9 sequence (whole entry): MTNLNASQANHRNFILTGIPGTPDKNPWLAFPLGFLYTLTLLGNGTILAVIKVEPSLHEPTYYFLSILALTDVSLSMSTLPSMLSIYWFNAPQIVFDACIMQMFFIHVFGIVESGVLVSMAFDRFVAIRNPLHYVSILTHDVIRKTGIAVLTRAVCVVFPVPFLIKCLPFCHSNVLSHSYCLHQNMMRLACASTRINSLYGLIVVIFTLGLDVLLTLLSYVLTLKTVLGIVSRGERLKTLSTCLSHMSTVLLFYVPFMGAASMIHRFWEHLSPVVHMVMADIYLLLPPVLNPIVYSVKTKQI
Summary of the method: as §1

[10] = molecular target: T10, OR51I1 (Homo sapiens) (UniProt Q9H343)
T10 sequence (whole entry): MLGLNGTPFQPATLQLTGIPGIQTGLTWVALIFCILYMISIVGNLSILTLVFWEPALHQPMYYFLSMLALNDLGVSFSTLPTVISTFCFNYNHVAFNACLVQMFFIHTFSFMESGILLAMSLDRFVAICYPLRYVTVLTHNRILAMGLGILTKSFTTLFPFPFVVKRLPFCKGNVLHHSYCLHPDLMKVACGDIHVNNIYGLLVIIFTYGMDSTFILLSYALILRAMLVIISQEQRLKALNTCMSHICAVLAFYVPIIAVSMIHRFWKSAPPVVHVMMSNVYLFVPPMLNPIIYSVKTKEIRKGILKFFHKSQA
Summary of the method: as §1

Measured: odorant receptor agonist call;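 further: active if original authors judged signal statistically different from baseline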

CS
inactive: all assays above

CCCCOC(C)=O
inactive: all assays above

CCC(C)=O
inactive: all assays above
